Reference: PubChem BioAssay AID1508597 (Cure First, 2020)
Purpose: 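Knock-downs altering ovarian cancer cell survival with or without PARP inhibitor rucaparib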 (primary screen). System: human ovarian carcinoma lines grown from tumours: OCI-P5x (papillary serous) and OCI-C5x (clear cell). Reagent: siRNA pool against human genes, 1.25 pmol siRNA per well. Duration: 72 h or 96 h, depending on the cell culture. Conditions: rucaparib 20 µM (about IC30) or vehicle, present until read-out. Detection: 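Luminescent ATP-based viability assay read 72 or 96 h after transfection, depending on culture, given as normalised percent viability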. Scale: viability, normalised: higher = more viable cells remaining. Call rule: 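Active when normalised viability falls below 80 percent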. Meaning of the calls: active = viability under 80%; inactive = viability 80% or more.
In all, the deposit lists about 2,100 reagents; shown is a part drawn at random. 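Calls flag viability under 80% in either arm, not effects specific to rucaparib; the reference for percent is not stated.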 The record does not give: the 100% reference.

| Target gene | rucaparib or vehicle | cell line | technical replicate | viability, normalised (%) | activity call |
| --- | --- | --- | --- | --- | --- |
| STK17A | Rucaparib | OCI-C5x (clear cell) | 1 | 36.1 | active |
| STK17A | Rucaparib | OCI-C5x (clear cell) | 2 | 43.2 | active |
| STK17A | Rucaparib | OCI-C5x (clear cell) | 3 | 50.1 | active |
| STK17A | Rucaparib | OCI-P5x (serous) | 1 | 71.3 | active |
| STK17A | Rucaparib | OCI-P5x (serous) | 2 | 78.6 | active |
| STK17A | Rucaparib | OCI-P5x (serous) | 3 | 75.4 | active |
| STK17A | Vehicle | OCI-C5x (clear cell) | 1 | 65.4 | active |
| STK17A | Vehicle | OCI-C5x (clear cell) | 2 | 57.3 | active |
| STK17A | Vehicle | OCI-C5x (clear cell) | 3 | 63 | active |
| STK17A | Vehicle | OCI-P5x (serous) | 1 | 85.2 | inactive |
| STK17A | Vehicle | OCI-P5x (serous) | 2 | 82.8 | inactive |
| STK17A | Vehicle | OCI-P5x (serous) | 3 | 75.4 | active |
| TGM3 | Rucaparib | OCI-C5x (clear cell) | 1 | 55.8 | active |
| TGM3 | Rucaparib | OCI-C5x (clear cell) | 2 | 39.2 | active |
| TGM3 | Rucaparib | OCI-C5x (clear cell) | 3 | 47.1 | active |
| TGM3 | Rucaparib | OCI-P5x (serous) | 1 | 64.3 | active |
| TGM3 | Rucaparib | OCI-P5x (serous) | 2 | 55.8 | active |
| TGM3 | Rucaparib | OCI-P5x (serous) | 3 | 58.7 | active |
| TGM3 | Vehicle | OCI-C5x (clear cell) | 1 | 48 | active |
| TGM3 | Vehicle | OCI-C5x (clear cell) | 2 | 61 | active |
| TGM3 | Vehicle | OCI-C5x (clear cell) | 3 | 57.2 | active |
| TGM3 | Vehicle | OCI-P5x (serous) | 1 | 91.5 | inactive |
| TGM3 | Vehicle | OCI-P5x (serous) | 2 | 94.4 | inactive |
| TGM3 | Vehicle | OCI-P5x (serous) | 3 | 88.2 | inactive |
| TDRKH | Rucaparib | OCI-C5x (clear cell) | 1 | 44.3 | active |
| TDRKH | Rucaparib | OCI-C5x (clear cell) | 2 | 53.8 | active |
| TDRKH | Rucaparib | OCI-C5x (clear cell) | 3 | 44.3 | active |
| TDRKH | Rucaparib | OCI-P5x (serous) | 1 | 73.8 | active |
| TDRKH | Rucaparib | OCI-P5x (serous) | 2 | 74.9 | active |
| TDRKH | Rucaparib | OCI-P5x (serous) | 3 | 72.7 | active |
| TDRKH | Vehicle | OCI-C5x (clear cell) | 1 | 47.4 | active |
| TDRKH | Vehicle | OCI-C5x (clear cell) | 2 | 54.4 | active |
| TDRKH | Vehicle | OCI-C5x (clear cell) | 3 | 43.8 | active |
| TDRKH | Vehicle | OCI-P5x (serous) | 1 | 65.2 | active |
| TDRKH | Vehicle | OCI-P5x (serous) | 2 | 74.3 | active |
| TDRKH | Vehicle | OCI-P5x (serous) | 3 | 98.7 | inactive |
| PDE6G | Rucaparib | OCI-C5x (clear cell) | 1 | 65.2 | active |
| PDE6G | Rucaparib | OCI-C5x (clear cell) | 2 | 68.3 | active |
| PDE6G | Rucaparib | OCI-C5x (clear cell) | 3 | 70.3 | active |
| PDE6G | Rucaparib | OCI-P5x (serous) | 1 | 57 | active |
| PDE6G | Rucaparib | OCI-P5x (serous) | 2 | 71.9 | active |
| PDE6G | Rucaparib | OCI-P5x (serous) | 3 | 76.4 | active |
| PDE6G | Vehicle | OCI-C5x (clear cell) | 1 | 54.7 | active |
| PDE6G | Vehicle | OCI-C5x (clear cell) | 2 | 60.2 | active |
| PDE6G | Vehicle | OCI-C5x (clear cell) | 3 | 72.8 | active |
| PDE6G | Vehicle | OCI-P5x (serous) | 1 | 82.4 | inactive |
| PDE6G | Vehicle | OCI-P5x (serous) | 2 | 56.4 | active |
| PDE6G | Vehicle | OCI-P5x (serous) | 3 | 95.9 | inactive |

In a second layout: 3 of the entries above
{"Target gene": "PDE6G", "rucaparib or vehicle": "Rucaparib", "cell line": "OCI-C5x (clear cell)", "technical replicate": "2", "viability, normalised (%)": 68.3, "activity call": "active"}
{"Target gene": "PDE6G", "rucaparib or vehicle": "Rucaparib", "cell line": "OCI-C5x (clear cell)", "technical replicate": "3", "viability, normalised (%)": 70.3, "activity call": "active"}
{"Target gene": "PDE6G", "rucaparib or vehicle": "Rucaparib", "cell line": "OCI-P5x (serous)", "technical replicate": "1", "viability, normalised (%)": 57, "activity call": "active"}
